PubChem BioAssay AID743121 | NCATS – 2013
In all, the deposit lists about 26,000 reagents; below is an unselected part. 167 of them (0.63%) count as active. 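Calls are per gene from RSA p-values that are not deposited; an individual active-marked siRNA can sensitise only weakly.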 Reagents against one gene are numbered here. Not all columns of the deposit are shown.

Assay: 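Knock-downs that sensitise breast cancer cells to camptothecin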 (primary screen)
Cells: MDA-MB-231 cells, a human breast cancer line
Reagents: single siRNA against human genes, 20 nM siRNA (0.8 pmol per well)
Timing: 120 h (drug added 48 h after transfection, read 72 h later)
Conditions: camptothecin 20 nM (about EC30) for 72 h; vehicle 0.1% DMSO in parallel plates
Read-out: 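CellTiter-Glo ATP signal, scaled to control siRNA as percent viability; sensitisation given as log2 of untreated divided by camptothecin-treated viability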
Direction: log2 vehicle/camptothecin viability: higher = stronger sensitisation to camptothecin
Active means: 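Each gene scored by redundant siRNA activity (RSA) over its individual siRNA ratios; a gene is called active at p < 0.001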

| log2 vehicle/camptothecin viability | activity call | gene symbol | reagent |
| --- | --- | --- | --- |
| -0.462 | inactive | HIPK3 | 1 |
| -0.284 | inactive | HIPK3 | 2 |
| -0.307 | inactive | HIPK3 | 3 |
| 0.0204 | inactive | HIPK3 | 4 |
| -0.317 | inactive | SUMO1 | 1 |
| 0.0122 | inactive | SUMO1 | 2 |
| -0.412 | inactive | SUMO1 | 3 |
| -0.243 | inactive | SUMO1 | 4 |
| -0.487 | inactive | ACKR3 | 1 |
| -0.265 | inactive | ACKR3 | 2 |
| 0.278 | inactive | ACKR3 | 3 |
| -0.341 | inactive | ACKR3 | 4 |
| 0.0162 | inactive | ADORA2A | 1 |
| -0.486 | inactive | ADORA2A | 2 |
| -0.22 | inactive | ADORA2A | 3 |
| -0.0574 | inactive | ADORA2A | 4 |
| -0.229 | inactive | PAK6 | 1 |
| -0.453 | inactive | PAK6 | 2 |
| -0.344 | inactive | PAK6 | 3 |
| -0.0961 | inactive | PAK6 | 4 |
| -0.324 | inactive | GCH1 | 1 |
| -0.202 | inactive | GCH1 | 2 |
| -0.269 | inactive | GCH1 | 3 |
| -0.356 | inactive | GCH1 | 4 |
| -0.305 | inactive | PMS2P2 | 1 |
| 0.111 | inactive | FBN1 | 1 |
| -0.0207 | inactive | FBN1 | 2 |
| -0.359 | inactive | FBN1 | 3 |
| -0.356 | inactive | FBN1 | 4 |
| -0.226 | inactive | SMARCAD1 | 1 |
| -0.386 | inactive | SMARCAD1 | 2 |
| -0.231 | inactive | SMARCAD1 | 3 |
| -0.242 | inactive | SMARCAD1 | 4 |
| -0.132 | inactive | FBXL4 | 1 |
| -0.368 | inactive | FBXL4 | 2 |
| -0.503 | inactive | FBXL4 | 3 |
| -0.266 | inactive | FBXL4 | 4 |
| 0.127 | inactive | PSMC3 | 1 |
| -0.406 | inactive | PSMC3 | 2 |
| -0.505 | inactive | PSMC3 | 3 |
| -0.339 | inactive | PSMC3 | 4 |
| 0.419 | inactive | BIRC8 | 1 |
| -0.0744 | inactive | BIRC8 | 2 |
| -0.435 | inactive | BIRC8 | 3 |
| -0.534 | inactive | BIRC8 | 4 |
| 0.0204 | inactive | RAD21 | 1 |
| -0.54 | inactive | RAD21 | 2 |
| -0.413 | inactive | RAD21 | 3 |
| 0.00702 | inactive | ARPP19 | 1 |
| -0.458 | inactive | ARPP19 | 2 |
| -0.414 | inactive | ARPP19 | 3 |
| -0.0298 | inactive | ARPP19 | 4 |
| -0.221 | inactive | FN3KRP | 1 |
| 0.635 | inactive | FN3KRP | 2 |
| -0.139 | inactive | FN3KRP | 3 |
| -0.603 | inactive | FN3KRP | 4 |
| -0.207 | inactive | ABCA5 | 1 |
| -0.198 | inactive | ABCA5 | 2 |
| -0.301 | inactive | ABCA5 | 3 |
| -0.186 | inactive | ABCA5 | 4 |
| 0.0942 | inactive | ADAMTS8 | 1 |
| -0.402 | inactive | ADAMTS8 | 2 |
| -0.139 | inactive | ADAMTS8 | 3 |
| -0.154 | inactive | OR10H1 | 1 |
| -0.021 | inactive | OR10H1 | 2 |
| 0.0891 | inactive | OR10H1 | 3 |
| -0.12 | inactive | OR10H1 | 4 |
| 0.749 | active | OR1A2 | 1 |
| 0.283 | active | OR1A2 | 2 |
| 0.386 | active | OR1A2 | 3 |
| 0.491 | active | OR1A2 | 4 |

Copied from the listing (10 entries):
| log2 vehicle/camptothecin viability | activity call | gene symbol | reagent |
| --- | --- | --- | --- |
| -0.339 | inactive | PSMC3 | 4 |
| 0.419 | inactive | BIRC8 | 1 |
| -0.0744 | inactive | BIRC8 | 2 |
| -0.435 | inactive | BIRC8 | 3 |
| -0.534 | inactive | BIRC8 | 4 |
| 0.0204 | inactive | RAD21 | 1 |
| -0.54 | inactive | RAD21 | 2 |
| -0.413 | inactive | RAD21 | 3 |
| 0.00702 | inactive | ARPP19 | 1 |
| -0.458 | inactive | ARPP19 | 2 |
